Reference: doi:10.1101/808311
Read-outs that look alike come from different tables or passages of the source. These are yes or no findings as the source states them, for the method shown. Binding seen in cells or lysates may run through a third protein. These calls come from enrichment with a bait or labelling near it, and not all partners need be listed. For some of these results: Where a sequence is shown, tags or fusion partners need not be part of it. Each block holds one molecule with its values, some of them ahead of it.

By UniProt entry, the sequences of proteins in these tests, tags left out. Where a name states a change or a piece, a line headed by the entry shows the natural chain unless it says otherwise.
UniProt Q96B77: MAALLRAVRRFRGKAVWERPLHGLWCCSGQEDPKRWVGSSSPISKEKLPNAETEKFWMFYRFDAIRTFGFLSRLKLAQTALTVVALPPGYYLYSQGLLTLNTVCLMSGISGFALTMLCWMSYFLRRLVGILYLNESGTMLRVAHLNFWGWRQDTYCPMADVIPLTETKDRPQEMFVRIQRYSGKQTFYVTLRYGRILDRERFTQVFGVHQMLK
UniProt O95298: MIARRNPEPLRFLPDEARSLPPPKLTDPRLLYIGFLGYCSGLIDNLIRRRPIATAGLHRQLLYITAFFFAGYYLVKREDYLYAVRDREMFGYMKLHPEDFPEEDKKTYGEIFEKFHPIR

Key:
[1] = target: T1, COA1 with a C-terminal Flag tag (human) (UniProt Q9GZY4); assay: affinity purification with mass spectrometry
T1 sequence: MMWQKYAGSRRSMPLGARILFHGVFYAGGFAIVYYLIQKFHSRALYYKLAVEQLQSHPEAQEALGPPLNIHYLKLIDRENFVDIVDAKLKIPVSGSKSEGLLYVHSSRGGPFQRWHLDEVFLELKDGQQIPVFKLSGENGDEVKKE

[2] = target: NDUFAF1 fused to the promiscuous biotin ligase BirA* (human) (UniProt Q9Y375); assay: proximity labelling
[3] = target: TMEM186 with a C-terminal Flag epitope (human) (UniProt Q96B77); assay: affinity purification with mass spectrometry
[4] = target: TMEM186 with a C-terminal Flag epitope (human) (UniProt Q96B77); assay: affinity purification with mass spectrometry; remark: listed apart in the source
[5] = target: T1, COA1 with a C-terminal Flag tag (human); assay: affinity purification with mass spectrometry; remark: listed apart in the source
[6] = target: T2, NDUFAF1 fused to the promiscuous biotin ligase BirA* (human), Q9Y375; assay: proximity labelling; settings: remark: other sources report otherwise
T2 chain: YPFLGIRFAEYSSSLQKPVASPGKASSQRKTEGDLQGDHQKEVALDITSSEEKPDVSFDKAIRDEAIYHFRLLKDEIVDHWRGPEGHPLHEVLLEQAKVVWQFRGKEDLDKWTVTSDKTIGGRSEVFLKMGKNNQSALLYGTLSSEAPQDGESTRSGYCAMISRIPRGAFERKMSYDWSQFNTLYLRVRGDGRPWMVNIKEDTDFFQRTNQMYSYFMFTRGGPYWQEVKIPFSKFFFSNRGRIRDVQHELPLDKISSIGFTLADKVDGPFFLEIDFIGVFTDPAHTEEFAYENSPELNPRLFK

Molecule: NDUFC2, complex I subunit of the ND2 module (from UniProt O95298 1-119)
binding [1]: binds

Molecule: NDUFAF1 (endogenous, HEK293T-derived cells) (from UniProt Q9Y375 25-327)
binding [3]: binds
binding [4]: binds
binding [5]: binds
binding [1]: binds

B1: ACAD9 (endogenous, HEK293T-derived cells), Q9H845 38-621 (protein)
chain: AFAKELFLGKIKKKEVFPFPEVSQDELNEINQFLGPVEKFFTEEVDSRKIDQEGKIPDETLEKLKSLGLFGLQVPEEYGGLGFSNTMYSRLGEIISMDGSITVTLAAHQAIGLKGIILAGTEEQKAKYLPKLASGEHIAAFCLTEPASGSDAASIRSRATLSEDKKHYILNGSKVWITNGGLANIFTVFAKTEVVDSDGSVKDKITAFIVERDFGGVTNGKPEDKLGIRGSNTCEVHFENTKIPVENILGEVGDGFKVAMNILNSGRFSMGSVVAGLLKRLIEMTAEYACTRKQFNKRLSEFGLIQEKFALMAQKAYVMESMTYLTAGMLDQPGFPDCSIEAAMVKVFSSEAAWQCVSEALQILGGLGYTRDYPYERILRDTRILLIFEGTNEILRMYIALTGLQHAGRILTTRIHELKQAKVSTVMDTVGRRLRDSLGRTVDLGLTGNHGVVHPSLADSANKFEENTYCFGRTVETLLLRFGKTIMEEQLVLKRVANILINLYGMTAVLSRASRSIRIGLRNHDHEVLLANTFCVEAYLQNLFSLSQLDKYAPENLDEQIKKVSQQILEKRAYICAHPLDRTC
binding [6]: binds

B2: ACAD9 (endogenous, HEK293T-derived cells) (protein, UniProt Q9H845 38-621)
chain: B1 chain
binding [3]: binds
binding [4]: binds
binding [5]: binds
binding [1]: binds

B4: ECSIT (endogenous, HEK293T-derived cells) (protein, UniProt Q9BQ95 49-431)
chain: SSEQSLVPSPPEPRQRPTKALVPFEDLFGQAPGGERDKASFLQTVQKFAEHSVRKRGHIDFIYLALRKMREYGVERDLAVYNQLLNIFPKEVFRPRNIIQRIFVHYPRQQECGIAVLEQMENHGVMPNKETEFLLIQIFGRKSYPMLKLVRLKLWFPRFMNVNPFPVPRDLPQDPVELAMFGLRHMEPDLSARVTIYQVPLPKDSTGAADPPQPHIVGIQSPDQQAALARHNPARPVFVEGPFSLWLRNKCVYYHILRADLLPPEEREVEETPEEWNLYYPMQLDLEYVRSGWDNYEFDINEVEEGPVFAMCMAGAHDQATMAKWIQGLQETNPTLAQIPVVFRLAGSTRELQTSSAGLEEPPLPEDHQEEDDNLQRQQQGQS
binding [2]: binds
binding [3]: binds
binding [4]: binds
binding [5]: binds
binding [1]: binds

B5: AGK (protein, UniProt Q53H12 1-422)
chain: MTVFFKTLRNHWKKTTAGLCLLTWGGHWLYGKHCDNLLRRAACQEAQVFGNQLIPPNAQVKKATVFLNPAACKGKARTLFEKNAAPILHLSGMDVTIVKTDYEGQAKKLLELMENTDVIIVAGGDGTLQEVVTGVLRRTDEATFSKIPIGFIPLGETSSLSHTLFAESGNKVQHITDATLAIVKGETVPLDVLQIKGEKEQPVFAMTGLRWGSFRDAGVKVSKYWYLGPLKIKAAHFFSTLKEWPQTHQASISYTGPTERPPNEPEETPVQRPSLYRRILRRLASYWAQPQDALSQEVSPEVWKDVQLSTIELSITTRNNQLDPTSKEDFLNICIEPDTISKGDFITIGSRKVRNPKLHVEGTECLQASQCTLLIPEGAGGSFSIDSEEYEAMPVEVKLLPRKLQFFCDPRKREQMLTSPTQ
binding [4]: binds

Next, values leading:

binding [2]: binds
binding [1]: binds
Molecule: TMEM186 (endogenous, HEK293T-derived cells) (from UniProt Q96B77)

binding [2]: binds
binding [4]: binds
B3: TMEM126B (endogenous, HEK293T-derived cells) (protein, UniProt Q8IUX1 1-230)
chain: MVVFGYEAGTKPRDSGVVPVGTEEAPKVFKMAASMHGQPSPSLEDAKLRRPMVIEIIEKNFDYLRKEMTQNIYQMATFGTTAGFSGIFSNFLFRRCFKVKHDALKTYASLATLPFLSTVVTDKLFVIDALYSDNISKENCVFRSSLIGIVCGVFYPSSLAFTKNGRLATKYHTVPLPPKGRVLIHWMTLCQTQMKLMAIPLVFQIMFGILNGLYHYAVFEETLEKTIHEE

binding [4]: binds
B6: TIM29 (protein, UniProt Q9BSF4 32-260)
chain: GSWARALLRDYAEACRDASAEARARPGRAAVYVGLLGGAAACFTLAPSEGAFEEALLEASGTLLLLAPATRNRESEAFVQRLLWLRGRGRLRYVNLGLCSLVYEAPFDAQASLYQARCRYLQPRWTDFPGRVLDVGFVGRWWVLGAWMRDCDINDDEFLHLPAHLRVVGPQQLHSETNERLFDEKYKPVVLTDDQVDQALWEEQVLQKEKKDRLALSQAHSLVQAEAPR

binding [4]: binds
B7: TIM22 (protein, UniProt Q9Y584 1-194)
chain: MAAAAPNAGGSAPETAGSAEAPLQYSLLLQYLVGDKRQPRLLEPGSLGGIPSPAKSEEQKMIEKAMESCAFKAALACVGGFVLGGAFGVFTAGIDTNVGFDPKDPYRTPTAKEVLKDMGQRGMSYAKNFAIVGAMFSCTECLIESYRGTSDWKNSVISGCITGGAIGFRAGLKAGAIGCGGFAAFSAAIDYYLR
